Laboratory results: PubChem BioAssay AID1224830 (NIAID, 2016)
Shown is an unselected part of about 18,000 deposited reagents. Of all reagents, about 2,900 (16%) were called active. 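Calls are made per well; low scores hint the gene aids the LPS response, high scores that it dampens it.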 Repeated entries: four replicate wells of each siRNA pool. No sequences are given here.

Test: 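Regulators of TLR4 signalling towards TNF-alpha in macrophage-like cells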 (primary screen)
System: human THP-1 monocytic leukaemia cells, TNF dual-luciferase reporter clone, PMA-differentiated to macrophage-like cells
Reagent: siRNA pool against human genes, 50 nM
Time to read-out: LPS for 4 h, given about 3 days after siRNA transfection
Challenge: bacterial LPS (TLR4 ligand), 10 ng/ml
Read-out: 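Ratio of firefly to renilla light, scaled to the plate median and expressed as a robust z-score per replicate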
Direction: TNF reporter robust z-score: higher = stronger TNF reporter response to LPS
Rule for the call: 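a well is active when its z-score exceeds 2.8 or falls below -1.5; control wells carry no call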

Against OR4F21 [SID315464937], the values are TNF reporter robust z-score -0.42; inactive. After knock-down of OR4F21 [SID315464937] the results were TNF reporter robust z-score -0.01; inactive. For OR4F21 [SID315464937], the entry reads TNF reporter robust z-score -0.47; inactive. With knock-down of OR4F21 [SID315464937], the record shows TNF reporter robust z-score 0.17; inactive. Against NXT2 [SID315457950], the values are TNF reporter robust z-score 0.13; inactive. Depletion of NXT2 [SID315457950] gave: TNF reporter robust z-score 1.26; inactive.

For NXT2 [SID315457950], the entry reads TNF reporter robust z-score -0.24; inactive. With knock-down of NXT2 [SID315457950] the results were TNF reporter robust z-score -1.06; inactive. Silencing of CDH5 [SID315447830] gave: TNF reporter robust z-score 0.8; inactive. With knock-down of CDH5 [SID315447830] the results were TNF reporter robust z-score -0.67; inactive. Depletion of CDH5 [SID315447830] resulted in: TNF reporter robust z-score -1.04; inactive. Silencing of CDH5 [SID315447830] gave: TNF reporter robust z-score -0.88; inactive.

Silencing of IL11 [SID315449478] resulted in: TNF reporter robust z-score -0.03; inactive. After knock-down of IL11 [SID315449478] the results were TNF reporter robust z-score -0.14; inactive. After knock-down of IL11 [SID315449478], the screen gave TNF reporter robust z-score -0.69; inactive. Depletion of IL11 [SID315449478] resulted in: TNF reporter robust z-score -0.35; inactive. Knock-down of SEPTIN1 [SID315448309] came out at: TNF reporter robust z-score 1.71; inactive. SEPTIN1 [SID315448309] showed TNF reporter robust z-score 0.17; inactive.

Against SEPTIN1 [SID315448309] the deposit lists TNF reporter robust z-score 1.25; inactive. With knock-down of SEPTIN1 [SID315448309], the screen gave TNF reporter robust z-score 0.48; inactive. Against GCK [SID315448862] the deposit lists TNF reporter robust z-score 0.57; inactive. For GCK [SID315448862], the values are TNF reporter robust z-score -0.01; inactive. GCK [SID315448862] showed TNF reporter robust z-score 0.45; inactive. Silencing of GCK [SID315448862] came out at: TNF reporter robust z-score 1.16; inactive.

With knock-down of OVOL1 [SID315450385] the results were TNF reporter robust z-score -0.48; inactive. Depletion of OVOL1 [SID315450385] gave: TNF reporter robust z-score -0.52; inactive. After knock-down of OVOL1 [SID315450385], the screen gave TNF reporter robust z-score -0.15; inactive. After knock-down of OVOL1 [SID315450385], the record shows TNF reporter robust z-score -0.07; inactive. After knock-down of RGL3 [SID315458288], the screen gave TNF reporter robust z-score -0.59; inactive. With knock-down of RGL3 [SID315458288], the screen gave TNF reporter robust z-score 0.1; inactive.

Against RGL3 [SID315458288], the entry reads TNF reporter robust z-score -0.44; inactive. Against RGL3 [SID315458288], the values are TNF reporter robust z-score -0.04; inactive.

Entries listed so far whose target name starts with C or c:
CDH5 [SID315447830]: TNF reporter robust z-score = 0.8; Call = inactive
CDH5 [SID315447830]: TNF reporter robust z-score = -0.67; Call = inactive
CDH5 [SID315447830]: TNF reporter robust z-score = -1.04; Call = inactive
CDH5 [SID315447830]: TNF reporter robust z-score = -0.88; Call = inactive
